Assay results taken from PubChem BioAssay AID2551 (National Center for Advancing Translational Sciences (NCATS), 2010).
The whole screen tested about 310,000 compounds, of which about 17,000 (5.5%) were called active. The inconclusive results got no clear call from the source; some entries with a clear call stand among them for comparison. The call rests on the fitted dose curve; in most records, active means well fitted inhibition curve with a large enough effect; inconclusive means small, poorly fitted or top-dose-only effect, or effect the other way; inactive means no such curve, though single readings can be large or run the other way. Potencies of inconclusive entries are doubtful fits and often do not repeat.

Protein sequences, listed by entry. Tags and fused reporters are not part of them. Lines headed by an entry give the natural chain unless they say otherwise; changes in a name come on top.
UniProt P51450: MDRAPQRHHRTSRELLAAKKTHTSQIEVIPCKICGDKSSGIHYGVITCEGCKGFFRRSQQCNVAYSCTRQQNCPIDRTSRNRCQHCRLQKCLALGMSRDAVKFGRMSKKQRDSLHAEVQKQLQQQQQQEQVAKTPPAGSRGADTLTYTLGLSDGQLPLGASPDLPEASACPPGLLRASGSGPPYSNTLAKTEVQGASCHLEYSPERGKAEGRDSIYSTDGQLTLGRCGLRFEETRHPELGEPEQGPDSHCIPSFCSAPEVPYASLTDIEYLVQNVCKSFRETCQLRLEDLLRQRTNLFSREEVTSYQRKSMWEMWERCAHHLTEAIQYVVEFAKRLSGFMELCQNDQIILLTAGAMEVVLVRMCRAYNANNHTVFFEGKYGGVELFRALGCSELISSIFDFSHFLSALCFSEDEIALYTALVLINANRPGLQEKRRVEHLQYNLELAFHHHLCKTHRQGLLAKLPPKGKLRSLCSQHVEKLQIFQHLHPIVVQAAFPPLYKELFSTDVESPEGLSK

Target: Nuclear receptor ROR-gamma (Mus musculus) (UniProt P51450)
Test: qHTS for inhibitors of ROR gamma transcriptional activity; further: nearly all actives have a fitted effect of over 60% in size
Conditions: Drosophila S2 Gal4-RORgamma UAS-luciferase reporter, 20 h; activity change, negative = inhibition: at 53.6 µM (top of the series)
Summary of the method: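 A Gal4/UAS one-hybrid system in insect cells: metallothionein-promoter Gal4–ROR gamma fusion plus Photinus luciferase reporter. Copper sulfate 700 uM final, 20 hr ambient incubation, luminescent detection after 10 min with reagent.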
On the % scale 0 is the no-effect control and ±100 the full control effect; potency means the concentration at half of the fitted maximal effect.

Structure (SMILES)	Potency	activity change, negative = inhibition
C=CCNc1nc(Cl)nc(Nc2cc(Cl)ccc2OC)n1	inconclusive: 17.8 µM [inhibitor, single point]	
Fc1ccccc1SCc1nnc(-c2ccccc2Br)o1	inconclusive: 10 µM [inhibitor, single point]	
COc1ccc(CNC(=S)N/N=C/c2ccncc2)cc1	inconclusive: 3.16 µM [inhibitor, single point]	
O=C(Nc1ccc2oc(-c3ccccc3)nc2c1)c1ccncc1	inconclusive: 20 µM [activator, single point]	
O=C(NNC1=Nc2ccccc2SC1)c1cccc([N+](=O)[O-])c1	inconclusive: 0.794 µM [inhibitor, full curve, poor fit]	
O=C(CCC(=O)NC1CC1)Nc1nnc(C2CCCCC2)s1	inactive	
COc1cccc(-c2nn(-c3ccccc3)cc2CN(C)C(C)c2ccon2)c1 (stereo not given)	inconclusive: 7.94 µM [inhibitor, partial curve]	
Cc1cc2ncn(S(=O)(=O)c3ccc(S(=O)(=O)N4CCOCC4)cc3)c2cc1C		inactive: 5.33% [at 0.365 µM]
Nn1c(SCc2cccc(Br)c2)nnc1-c1cccnc1	inactive	
CSc1ccc(S(=O)(=O)N2CCC(C(=O)NCCc3ccccc3)CC2)cc1	inconclusive: 31.6 µM [activator, single point]	
CCNc1nc(NCC)nc(OCCOC(=O)COc2ccc(Cl)cc2Cl)n1	inconclusive: 15.8 µM [activator, partial curve]	
NC(=S)N/N=C/c1ccc(-c2cc(Cl)cc(Cl)c2)o1	active: 1.26 µM	
COc1ccc(NC(=O)C(CC(=O)O)C(C)c2ccccc2)cc1 (stereo not given)	inactive	
O=C(Nc1cccc(Cl)c1)Nc1nnc(CSCCOc2ccc(Cl)cc2)s1	inconclusive: 15.8 µM [inhibitor, single point]	
CCOC(=O)c1[nH]c2ccccc2c1NC(=S)Nc1cccc(C)c1C	inconclusive: 35.5 µM [inhibitor, single point]	
COC(=O)/C=C1/S/C(=N/N=C/c2ccco2)NC1=O	active: 14.1 µM	
CCN=C1SC(CC(=O)Nc2ccc(C(F)(F)F)cc2)C(=O)N1CC (stereo not given)	inconclusive: 3.55 µM [activator, partial curve, poor fit]	
O=C(Nc1nnc(CCc2ccccc2)s1)c1ccccc1	inconclusive: 35.5 µM [inhibitor, single point]	
Cc1ccc(NC2=CC(=O)CCC2)cc1C	inconclusive: 35.5 µM [activator, single point]	
CCCOc1ccccc1C1CC(=O)NC2=C1C(=O)CCC2 (stereo not given)	inactive	
CC(C)N1CCc2c(sc(NC(=S)NC(=O)c3ccccc3)c2C#N)C1	inconclusive: 14.1 µM [inhibitor, single point]	
Clc1ccccc1Nc1nc(-c2cccnc2)cs1	inconclusive: 35.5 µM [inhibitor, single point]	
Cc1ccc(-c2nn(-c3ccccn3)c(=O)c3ccccc23)cc1	inconclusive: 11.2 µM [activator, single point]	
O=C(NCc1ccc(Cl)cc1)c1cc2c(nc3sccn32)s1	inconclusive: 12.6 µM [activator, partial curve]	
N=c1c2c(-c3ccccc3)c(-c3ccccc3)n(Cc3ccco3)c2ncn1CCCN1CCOCC1	inconclusive: 35.5 µM [inhibitor, single point]	

Structure (SMILES)	Potency	activity change, negative = inhibition
Cc1ccc(CSCC(=O)Nc2ccc3c(c2)OCO3)cc1	inactive	
COC(=O)C[C@@H]1O[C@H]1[C@H](C)[C@@H](OC)C(C)C		inactive: 14.6% [at 10 µM]
COc1ccc(OCc2n(CC(=O)OC3CC(C)CCC3C(C)C)c3ccccc3[n+]2C)cc1 (stereo not given)	inconclusive: 31.6 µM [inhibitor, single point]	
CC1=NN(C(N)=S)C(=O)C1N=Nc1ccc(C)c(Br)c1 (stereo not given)	active: 0.708 µM	
Cc1ccc(C(CC(=O)c2ccc(Cl)cc2)C(=O)O)cc1 (stereo not given)	inactive	
CCc1ccccc1NC(=S)N(CCN(C)C)Cc1cccs1	active: 11.2 µM	
Cc1ccc(S(=O)(=O)c2c(C)cc(C)nc2N2CCCCC2)cc1	inconclusive: 14.1 µM [activator, partial curve]	
O=C(NNC(=S)NC(=O)c1ccc(Br)cc1)c1ccc([N+](=O)[O-])cc1	active: 11.2 µM	
COc1cc(C)c(N(C(C)=O)c2ccccc2)c(C)c1	inactive	
O=C(NN=C1C2CC3CC(C2)CC1C3)c1cccs1	inactive	
COC(CNc1ncnc2sc(-c3ccccc3)cc12)OC	inconclusive: 3.16 µM [activator, single point]	
COc1ccc2nc(Sc3c([N+](=O)[O-])nc(C)n3Cc3ccccc3)[nH]c2c1	inconclusive: 35.5 µM [inhibitor, single point]	
Cc1cc(C(=O)N/N=C/c2cc(Br)cc(Br)c2OC(=O)c2cccc(F)c2)n[nH]1	active: 3.55 µM	
COc1ccccc1CNN	inconclusive: 10 µM [inhibitor, single point]	
CCCCc1ccc(NC(=O)COc2ccc(C(=O)Nc3ccccc3OCC)cc2)cc1	inconclusive: 10 µM [inhibitor, single point]	
Cc1ccn(CC(=O)N2CCCC(N3CCN(Cc4ccc5c(c4)OCO5)CC3)C2)n1 (stereo not given)	inactive	
COc1ccc2ccc3c(c2c1)N=C[C@]1(O3)N(C)c2ccccc2C1(C)C	active: 12.6 µM	
Clc1ccc2[nH]c(-c3ccccc3)cc2c1	inactive	
CC1(C)N=C(c2ccccn2)C(C)(C)N1O	inconclusive: 0.631 µM [inhibitor, single point]	
COc1ccccc1N(/N=C1\Sc2ccccc2C1=O)C(C)=O	active: 8.91 µM	
Cc1ccc(C(=O)c2ccc(C)cc2)cc1	inconclusive: 11.2 µM [activator, partial curve]	
Cc1c(Cc2ccc3c(c2)OCO3)sc(NC(=O)C(C)(C)C)c1C#N	inconclusive: 15.8 µM [activator, single point]	
COc1ccc(-n2nc(C(C)=O)c(=O)[nH]c2=O)cc1	inconclusive: 20 µM [activator, single point]	
Cc1ccc(NC(=O)COc2ccc(C(=O)c3ccccc3)cc2)c(O)c1	inconclusive: 35.5 µM [activator, single point]	
O=C1c2ccccc2-c2onc3ccc(NCc4ccco4)c1c23	inconclusive: 35.5 µM [inhibitor, single point]	

As entered above:
For Potency, `COc1cc(C)c(N(C(C)=O)c2ccccc2)c(C)c1` reads inactive
For Potency, `CC1=NN(C(N)=S)C(=O)C1N=Nc1ccc(C)c(Br)c1` (stereo not given) reads active: 0.708 µM

The list goes on:

Structure (SMILES)	Potency	activity change, negative = inhibition
COc1ccc(CNC(=O)CCn2c(=O)oc3ccccc32)cc1	inactive	
Cc1cccnc1NC(=O)c1sc2ccccc2c1Cl	active: 8.91 µM	
CCn1nc(C)c(Br)c1-c1nc(CS(=O)(=O)c2ccsc2)no1	inconclusive: 4.47 µM [activator, full curve, poor fit]	
O=C(/C=C/c1ccc(Br)cc1)c1ccc(NC2=NCCCS2)cc1	inconclusive: 3.55 µM [inhibitor, single point]	
CCNc1nc(NCC)nc(ON=C(C)C)n1	inconclusive: 14.1 µM [inhibitor, partial curve]	
CC(O)Cn1ccccc1=N (stereo not given)	inconclusive: 35.5 µM [inhibitor, single point]	
CCC(CC)C(=O)NCCc1cc2c(C)ccc(C)c2[nH]c1=O	inactive	
Cc1ccc2cc(CCNC(=O)C(C)C)c(=O)[nH]c2c1	inconclusive: 5.62 µM [inhibitor, single point]	
C#CCOCCOCCOCCNc1nc(N2CCN(C(=O)[C@H](Cc3cc4ccccc4[nH]3)n3cc([C@@H](N)Cc4ccc(O)cc4)nn3)CC2)nc(N2CCN(C(=O)[C@H](Cc3cc4ccccc4[nH]3)n3cc([C@@H](N)CC(C)C)nn3)CC2)n1	inactive	
Cc1ccc(N2C(=O)c3ccc(C(=O)O)cc3C2=O)c(C)c1	inconclusive: 22.4 µM [activator, single point]	
O=C(CNC1CCCC1)Nc1ccc(N2CCCCCC2)cc1	inactive	
O=Nc1c(O)n(Cc2ccc(Cl)cc2)c2ccccc12	inconclusive: 35.5 µM [inhibitor, single point]	
O=C(c1cc(-c2ccc(Br)cc2)on1)N1CCOCC1	active: 10 µM	
Cc1cc(OCc2cc(C(=O)N3CCC(Oc4cccnc4)CC3)no2)cc(C)c1Cl	inactive	
Cc1ccc(C)c(NC(=S)NCc2ccccc2)c1	active: 3.16 µM	
Cc1nc(OCc2ccccc2)c2sc3nc4c(cc3c2n1)COC(C)(C)C4	inconclusive: 11.2 µM [activator, single point]	
O=C(NCCCN1CCN(c2ccccc2)CC1)Nc1ccccc1C(F)(F)F	inconclusive: 35.5 µM [inhibitor, single point]	
Cc1c(Cl)cccc1NC(=S)NCCc1ccccn1	active: 2.51 µM	
CN1CCN(C(=O)CCCN2C(=O)/C(=C/c3cccc(Br)c3)SC2=S)CC1	inconclusive: 25.1 µM [inhibitor, single point]	
COC(=O)C1C(=O)c2c([nH]c(C(=O)OCCSC)c2C)CC1C (stereo not given)	inconclusive: 0.0045 µM [activator, full curve, poor fit]	
COc1ccc(N2CC(C)Cn3c2nc2c3c(=O)n(Cc3ccc(F)cc3)c(=O)n2C)c(OC)c1 (stereo not given)	inactive	
CCCS(=O)(=O)c1c(S(=O)(=O)CCC)c2ccc(C(N)=O)cn2c1C(=O)c1ccccc1	inconclusive: 11.2 µM [activator, partial curve]	
Cc1ccc(C)c(OCCCN2CCNCC2)c1	inactive	
COc1ccc(NC2CCCN(C(=O)CSc3ccccn3)C2)cc1OC (stereo not given)	inactive	
O=C(COc1cccc2ccccc12)N/N=C/C=C/c1ccccc1	inconclusive: 17.8 µM [inhibitor, single point]	

At a glance, 2 of the compounds above:
Structure (SMILES)	Potency	activity change, negative = inhibition
O=C(c1cc(-c2ccc(Br)cc2)on1)N1CCOCC1	active: 10 µM	
Cc1cc(OCc2cc(C(=O)N3CCC(Oc4cccnc4)CC3)no2)cc(C)c1Cl	inactive	

Entries of single compounds as entered above:
COc1ccc(N2CC(C)Cn3c2nc2c3c(=O)n(Cc3ccc(F)cc3)c(=O)n2C)c(OC)c1 (stereo not given) in the list: Potency: inactive
COC(=O)C1C(=O)c2c([nH]c(C(=O)OCCSC)c2C)CC1C (stereo not given) in the list: Potency: inconclusive: 0.0045 µM [activator, full curve, poor fit]
